PubChem BioAssay AID504834 (National Center for Advancing Translational Sciences (NCATS), 2011)
Screen size: about 320,000 compounds; about 22,000 (6.9%) were called active. The inconclusive results got no clear call from the source; some entries with a clear call stand among them for comparison. Calls come from the whole dose curve; as a rule, active = well fitted inhibition curve with a large enough effect; inconclusive = small, poorly fitted or top-dose-only effect, or another doubt; inactive = no such curve, though single readings can be large or run the other way. Where the call is inconclusive, the potency comes from a doubtful curve fit.

Assay: Primary qHTS for delayed death inhibitors of the malarial parasite plastid, 96 hour incubation
Conditions: P. falciparum luciferase reporter growth; series mostly up to 28.7 µM; activity change, negative = inhibition: at the top concentration
In short: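 Plates of compound plus infected erythrocytes (2% hematocrit, 0.05% parasitemia final) incubate 96 hours, 37 C, 5% CO2. Detection reagent added; reduced luminescence from the parasites' luciferase reporter flags inhibition.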
% is set by controls: 0 for no effect and ±100 for the full control effect; potency is the fitted concentration of half-maximal effect.

| SMILES | Potency | activity change, negative = inhibition |
| --- | --- | --- |
| O=C(c1ccco1)N1CCCN(Cc2nc(-c3ccc4c(c3)OCO4)no2)CC1 | inconclusive: 13.1 µM [inhibitor, single point] |  |
| CC(C)Sc1nc(N2CCOCC2)c2c(c1C#N)CC(C)(C)N(C)C2 | inconclusive: 13.1 µM [inhibitor, single point] |  |
| O=C1CC(N(CCc2ccccc2)C(=S)Nc2ccccc2)C(=O)N1c1ccccc1 (configuration not stated) | active: 3.29 µM |  |
| CCCCCCCCCCCCN1C/C(=C\C(=O)OCC)c2ccccc2S1(=O)=O | inconclusive: 4.65 µM [inhibitor, partial curve, poor fit] |  |
| COc1ccc(OC)c(NC(=O)CN2C(=O)C3(OCCCO3)c3ccccc32)c1 | active: 5.22 µM |  |
| COc1ccc(/C=C/C(=O)Oc2ccc(/C=N/NC(=O)COc3c(C)cccc3C)cc2)cc1 | inconclusive: 13.1 µM [inhibitor, single point] |  |
| CCN(CCO)c1ccc(NC(=S)Nc2cccc(S(=O)(=O)N(C)C)c2)cc1 | inconclusive: 10.4 µM [inhibitor, single point] |  |
| Cc1ccc2c(c1)N(CC(=O)N1CCCC1)C(=O)C(C)O2 (configuration not stated) | inconclusive: 11.7 µM [inhibitor, single point] |  |
| COc1cccc2c1C(CO)N1C(C#N)C3CC(C(=O)O)C(C1C2)N3C (configuration not stated) | inconclusive: 0.294 µM [inhibitor, full curve] |  |
| CC(=O)Nc1cccc(OCc2ccc(S(=O)(=O)Cc3ccccc3)cc2)c1 | inconclusive: 16.5 µM [inhibitor, single point] |  |
| COc1cccc(NC(=O)C2c3cc(OC)c(OC)cc3C(=O)N(C)C2c2cccnc2)c1 (configuration not stated) | inconclusive: 5.86 µM [inhibitor, partial curve, poor fit] |  |
| COc1ccc(-c2noc(N3CCCC(C(=O)Nc4ccc(C(C)=O)cc4)C3)n2)cc1 (configuration not stated) | inconclusive: 6.57 µM [inhibitor, partial curve, poor fit] |  |
| CCCc1cc(-c2n[nH]c(C(=O)OCC)c2-c2cscn2)c(O)cc1O | inconclusive: 7.38 µM [inhibitor, partial curve] |  |
| CCN(C(=O)COC(=O)c1n[nH]c2ccccc12)C1CCS(=O)(=O)C1 (configuration not stated) | inconclusive: 1.17 µM [inhibitor, partial curve, poor fit] |  |
| COc1cc(C(=O)N2CCN(c3cc(Cl)ccc3Cl)CC2)cc(OC)c1OC | inconclusive: 18.5 µM [inhibitor, single point] |  |
| CC1=CS/C(=C(/C#N)C(=O)N2CCOCC2)N1c1ccccc1 | inconclusive: 0.0029 µM [inhibitor, full curve, poor fit] |  |
| CCc1ccc(-n2nnnc2SCC(=O)NNC(=O)c2ccco2)cc1 | inconclusive: 4.15 µM [inhibitor, partial curve, poor fit] |  |
| CCOc1ccc(-c2ccc(SC)nn2)cc1 | inconclusive: 10.4 µM [inhibitor, single point] |  |
| C#CCOCCOCCOCCNc1nc(N2CCN(C(=O)CCCCCCCCCCNC(=O)Cn3cc(C[C@@H](C)O)nn3)CC2)nc(N2CCN(C(=O)CCCCCCCCCCNC(=O)[C@@H](CCSC)n3cc(CCO)nn3)CC2)n1 | active: 0.147 µM |  |
| COc1ccccc1CC(NC(C)=O)C(=O)NC1CCN(C(=O)c2ccc(C)cc2)CC1 (configuration not stated) | inconclusive: 18.5 µM [inhibitor, single point] |  |
| CCOC(=O)c1ccc(N2C(=O)C(CC(=O)NC)N(CCc3ccc(OC)c(OC)c3)C2=S)cc1 (configuration not stated) |  | inactive: 1.73% |

Rewritten as labelled records: part of the list above.
O=C1CC(N(CCc2ccccc2)C(=S)Nc2ccccc2)C(=O)N1c1ccccc1 (configuration not stated)
  Potency: active: 3.29 µM
CCCCCCCCCCCCN1C/C(=C\C(=O)OCC)c2ccccc2S1(=O)=O
  Potency: inconclusive: 4.65 µM [inhibitor, partial curve, poor fit]

Further compounds

| SMILES | Potency | activity change, negative = inhibition |
| --- | --- | --- |
| COc1ccc(NC(=O)CCC(=O)N(Cc2ccc(OC)c(OC)c2)c2nccs2)c(OC)c1 | active: 2.94 µM |  |
| CCOP(=O)(Cc1ccccc1)OCC |  | inactive: 64% |
| Cc1cccc(NC(=O)Cn2c(/C=C/c3ccccc3)nc3ccccc32)c1 | inconclusive: 16.5 µM [inhibitor, single point] |  |
| C/C(=N\NC(=O)CSCc1ccc([N+](=O)[O-])cc1)c1ccccc1 |  | inactive: 41.6% |
| CCOC(=O)c1c(C)[nH]c(C2=NNC(=Nc3ccccc3)SC2)c1C | active: 3.7 µM |  |
| COc1cc2[nH]c(=O)n(CCC(=O)NCCCN3CCN(c4ccccc4F)CC3)c(=O)c2cc1OC | inconclusive: 9.28 µM [inhibitor, single point] |  |
| CCn1c2ccccc2c2nc3cc(OC)c(OC)cc3nc21 | active: 3.29 µM |  |
| COc1cc(/C=N/N=C(\N)c2nonc2N)cc(OC)c1OC | inconclusive: 10.4 µM [inhibitor, single point] |  |
| COCCN(CC(=O)Nc1cccc(C)c1C)C(=O)c1ccc(-n2cccn2)cc1 |  | inactive: -23.4% |
| O=C(COC(=O)CCc1nc2ccccc2c(=O)[nH]1)Nc1ccc2c(c1)OCO2 |  | inactive: 31% |
| CC(Oc1ccc(Cl)cc1Cl)C(=O)NCc1ccncc1 (configuration not stated) |  | inactive: -23.2% |
| COc1cc(/C=C/C(=O)OCC(=O)Nc2nnc(-c3ccccc3)o2)cc(OC)c1OC | inconclusive: 13.1 µM [inhibitor, single point] |  |
| Cc1ccc(N(C(=O)Cc2c[nH]c3ccccc23)C(C(=O)NC2CCCCC2)c2ccco2)cc1 (configuration not stated) | inconclusive: 7.38 µM [inhibitor, partial curve] |  |
| CCCCSc1nnc(CSc2nc3nc(C)cc(C)n3n2)o1 | inconclusive: 18.5 µM [inhibitor, single point] |  |
| Nc1nc2ccccc2n1CCOc1ccc(Cl)cc1 | inconclusive: 11.7 µM [inhibitor, partial curve] |  |
| Cc1ccc(Cn2c(=O)c3ccccc3n3nc(C)cc23)cc1 | inconclusive: 14.7 µM [inhibitor, single point] |  |
| O=C(c1cccs1)N1N=C(c2ccc(O)cc2)CC1c1ccccc1 (configuration not stated) | inconclusive: 10.4 µM [inhibitor, single point] |  |
| CCCCNC(=O)CCn1ccc2cc(S(=O)(=O)N3CCCC3)ccc21 |  | inactive: -17% |
| Cc1ccc(NC(=O)CCC(=O)OCC(=O)c2ccc(Oc3ccc([N+](=O)[O-])cc3)cc2)cc1C | inconclusive: 5.22 µM [inhibitor, partial curve, poor fit] |  |
| CCOC(=O)N1CCN(C(=S)Nc2ccc(C)cc2)CC1 |  | inactive: -7.62% |
| Cn1nc(C(=O)NC2CCCCCC2)ccc1=O |  | inactive: -8.1% |
